From the supplement of paper PMC10849652
Some of the results follow.

Sequences of proteins named here, by UniProt entry; tags and fusion partners are left off. A change or cut given only in a name is not applied to a line headed by its entry.
UniProt Q99720, whole entry, looked up: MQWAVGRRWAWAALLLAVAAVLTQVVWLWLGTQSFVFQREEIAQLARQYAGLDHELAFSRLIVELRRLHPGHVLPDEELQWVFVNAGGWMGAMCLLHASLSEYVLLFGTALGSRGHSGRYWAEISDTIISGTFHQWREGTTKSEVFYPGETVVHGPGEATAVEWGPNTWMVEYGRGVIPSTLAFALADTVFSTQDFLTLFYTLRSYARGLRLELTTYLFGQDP
UniProt Q15393: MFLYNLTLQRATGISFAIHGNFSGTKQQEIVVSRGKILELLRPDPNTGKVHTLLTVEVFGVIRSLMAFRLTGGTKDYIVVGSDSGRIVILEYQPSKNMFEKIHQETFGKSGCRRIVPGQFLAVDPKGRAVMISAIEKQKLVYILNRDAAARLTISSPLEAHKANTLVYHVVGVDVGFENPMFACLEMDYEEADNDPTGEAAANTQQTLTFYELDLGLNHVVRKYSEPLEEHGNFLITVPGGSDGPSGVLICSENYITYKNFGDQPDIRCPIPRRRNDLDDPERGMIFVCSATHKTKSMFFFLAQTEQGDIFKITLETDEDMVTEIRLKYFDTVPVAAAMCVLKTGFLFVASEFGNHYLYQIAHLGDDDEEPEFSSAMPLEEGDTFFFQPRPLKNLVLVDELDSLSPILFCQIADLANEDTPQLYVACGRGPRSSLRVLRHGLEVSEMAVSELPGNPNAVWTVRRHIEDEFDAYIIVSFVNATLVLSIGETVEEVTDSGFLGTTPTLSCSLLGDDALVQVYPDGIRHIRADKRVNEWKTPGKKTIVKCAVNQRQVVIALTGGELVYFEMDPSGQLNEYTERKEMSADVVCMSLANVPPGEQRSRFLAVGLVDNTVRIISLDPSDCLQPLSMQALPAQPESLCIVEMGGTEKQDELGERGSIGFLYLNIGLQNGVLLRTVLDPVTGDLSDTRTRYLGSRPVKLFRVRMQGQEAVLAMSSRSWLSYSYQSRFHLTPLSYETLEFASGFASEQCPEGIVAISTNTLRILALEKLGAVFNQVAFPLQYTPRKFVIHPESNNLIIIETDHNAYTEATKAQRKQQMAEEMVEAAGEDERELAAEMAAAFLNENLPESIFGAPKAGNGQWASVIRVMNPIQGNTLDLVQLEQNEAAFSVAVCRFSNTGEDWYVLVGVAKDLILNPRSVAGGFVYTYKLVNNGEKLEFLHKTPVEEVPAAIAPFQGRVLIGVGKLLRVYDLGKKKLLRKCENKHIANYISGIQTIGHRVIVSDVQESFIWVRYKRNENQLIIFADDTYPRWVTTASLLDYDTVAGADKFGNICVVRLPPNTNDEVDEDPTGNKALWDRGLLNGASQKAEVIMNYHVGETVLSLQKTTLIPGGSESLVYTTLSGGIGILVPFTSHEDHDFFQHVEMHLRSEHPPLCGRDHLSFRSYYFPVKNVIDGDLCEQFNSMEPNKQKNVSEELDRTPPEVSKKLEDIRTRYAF
UniProt Q7Z333: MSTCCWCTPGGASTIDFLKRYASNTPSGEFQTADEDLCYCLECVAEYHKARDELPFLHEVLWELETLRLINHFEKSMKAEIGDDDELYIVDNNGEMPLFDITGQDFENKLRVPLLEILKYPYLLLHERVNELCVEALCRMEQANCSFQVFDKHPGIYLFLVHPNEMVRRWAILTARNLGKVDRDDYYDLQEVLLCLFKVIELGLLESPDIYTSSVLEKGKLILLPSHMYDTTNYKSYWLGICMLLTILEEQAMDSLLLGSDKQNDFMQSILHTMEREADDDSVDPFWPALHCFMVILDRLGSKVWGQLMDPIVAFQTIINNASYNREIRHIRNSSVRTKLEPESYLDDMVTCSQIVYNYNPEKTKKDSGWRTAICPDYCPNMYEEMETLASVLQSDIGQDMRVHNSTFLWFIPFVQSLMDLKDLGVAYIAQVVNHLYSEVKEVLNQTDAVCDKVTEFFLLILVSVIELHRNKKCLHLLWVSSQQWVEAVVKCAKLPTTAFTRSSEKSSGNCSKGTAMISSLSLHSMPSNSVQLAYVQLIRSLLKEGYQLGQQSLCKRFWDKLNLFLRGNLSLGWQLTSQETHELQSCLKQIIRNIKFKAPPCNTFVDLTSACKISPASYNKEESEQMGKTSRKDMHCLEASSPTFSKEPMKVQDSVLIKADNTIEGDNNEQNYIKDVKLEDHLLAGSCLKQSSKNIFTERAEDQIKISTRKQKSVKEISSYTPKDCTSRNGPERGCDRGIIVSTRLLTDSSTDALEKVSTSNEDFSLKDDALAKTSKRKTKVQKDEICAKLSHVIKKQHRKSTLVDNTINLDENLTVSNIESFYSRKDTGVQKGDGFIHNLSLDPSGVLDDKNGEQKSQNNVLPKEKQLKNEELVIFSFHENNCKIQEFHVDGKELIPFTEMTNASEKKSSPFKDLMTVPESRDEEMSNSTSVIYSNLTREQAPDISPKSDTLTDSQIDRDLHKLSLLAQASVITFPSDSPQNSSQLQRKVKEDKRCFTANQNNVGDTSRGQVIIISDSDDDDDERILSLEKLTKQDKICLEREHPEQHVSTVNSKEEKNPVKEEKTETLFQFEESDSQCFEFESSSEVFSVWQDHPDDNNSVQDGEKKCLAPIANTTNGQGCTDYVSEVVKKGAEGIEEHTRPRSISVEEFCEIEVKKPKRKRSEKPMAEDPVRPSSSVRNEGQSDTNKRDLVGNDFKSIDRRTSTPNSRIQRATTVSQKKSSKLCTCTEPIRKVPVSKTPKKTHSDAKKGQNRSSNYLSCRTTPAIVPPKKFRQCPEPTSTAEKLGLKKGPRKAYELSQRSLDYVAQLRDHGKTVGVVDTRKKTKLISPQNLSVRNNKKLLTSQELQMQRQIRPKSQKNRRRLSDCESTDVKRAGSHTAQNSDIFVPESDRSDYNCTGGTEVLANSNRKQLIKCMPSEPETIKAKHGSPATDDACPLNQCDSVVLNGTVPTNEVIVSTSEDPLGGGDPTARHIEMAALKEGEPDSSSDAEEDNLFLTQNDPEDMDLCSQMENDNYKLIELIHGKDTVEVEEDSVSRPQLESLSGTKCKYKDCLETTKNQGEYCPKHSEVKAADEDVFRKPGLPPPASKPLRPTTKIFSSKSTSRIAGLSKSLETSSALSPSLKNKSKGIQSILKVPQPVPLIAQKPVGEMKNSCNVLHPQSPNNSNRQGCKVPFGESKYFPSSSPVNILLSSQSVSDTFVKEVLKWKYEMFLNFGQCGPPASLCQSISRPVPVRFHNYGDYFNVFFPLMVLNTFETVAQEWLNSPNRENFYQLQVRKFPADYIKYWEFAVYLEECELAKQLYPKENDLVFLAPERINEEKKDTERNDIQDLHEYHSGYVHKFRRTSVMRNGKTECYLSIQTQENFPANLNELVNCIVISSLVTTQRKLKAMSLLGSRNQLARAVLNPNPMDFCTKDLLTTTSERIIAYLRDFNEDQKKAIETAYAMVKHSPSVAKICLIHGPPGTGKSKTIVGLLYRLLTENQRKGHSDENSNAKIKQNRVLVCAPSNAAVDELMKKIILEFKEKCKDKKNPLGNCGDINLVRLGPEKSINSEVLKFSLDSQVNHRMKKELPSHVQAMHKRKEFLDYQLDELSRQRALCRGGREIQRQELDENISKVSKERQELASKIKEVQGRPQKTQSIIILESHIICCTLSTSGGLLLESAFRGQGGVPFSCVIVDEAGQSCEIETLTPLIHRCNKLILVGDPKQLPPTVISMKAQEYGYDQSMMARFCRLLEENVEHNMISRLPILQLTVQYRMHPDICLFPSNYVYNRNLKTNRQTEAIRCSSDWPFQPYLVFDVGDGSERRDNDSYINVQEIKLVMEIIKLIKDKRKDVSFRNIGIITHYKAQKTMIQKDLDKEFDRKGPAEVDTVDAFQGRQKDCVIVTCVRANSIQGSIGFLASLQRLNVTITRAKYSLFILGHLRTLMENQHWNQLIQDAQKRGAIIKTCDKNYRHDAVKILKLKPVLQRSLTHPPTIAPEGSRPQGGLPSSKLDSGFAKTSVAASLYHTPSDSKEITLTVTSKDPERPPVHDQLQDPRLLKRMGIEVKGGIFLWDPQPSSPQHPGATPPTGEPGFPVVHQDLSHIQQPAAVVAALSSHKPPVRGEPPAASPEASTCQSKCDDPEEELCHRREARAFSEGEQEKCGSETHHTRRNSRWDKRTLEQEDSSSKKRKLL
UniProt Q13309, whole entry, looked up: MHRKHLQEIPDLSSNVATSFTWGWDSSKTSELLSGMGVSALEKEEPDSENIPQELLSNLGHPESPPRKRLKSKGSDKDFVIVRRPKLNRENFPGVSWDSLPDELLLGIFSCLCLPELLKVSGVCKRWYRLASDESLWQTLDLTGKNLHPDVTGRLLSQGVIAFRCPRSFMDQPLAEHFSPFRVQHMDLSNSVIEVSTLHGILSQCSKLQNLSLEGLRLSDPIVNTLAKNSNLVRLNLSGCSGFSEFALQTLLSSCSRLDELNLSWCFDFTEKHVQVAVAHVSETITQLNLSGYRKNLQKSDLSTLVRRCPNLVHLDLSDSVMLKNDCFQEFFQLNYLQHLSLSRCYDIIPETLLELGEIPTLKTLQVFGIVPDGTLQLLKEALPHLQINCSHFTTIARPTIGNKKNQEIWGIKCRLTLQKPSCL
UniProt Q96B97, whole entry, looked up: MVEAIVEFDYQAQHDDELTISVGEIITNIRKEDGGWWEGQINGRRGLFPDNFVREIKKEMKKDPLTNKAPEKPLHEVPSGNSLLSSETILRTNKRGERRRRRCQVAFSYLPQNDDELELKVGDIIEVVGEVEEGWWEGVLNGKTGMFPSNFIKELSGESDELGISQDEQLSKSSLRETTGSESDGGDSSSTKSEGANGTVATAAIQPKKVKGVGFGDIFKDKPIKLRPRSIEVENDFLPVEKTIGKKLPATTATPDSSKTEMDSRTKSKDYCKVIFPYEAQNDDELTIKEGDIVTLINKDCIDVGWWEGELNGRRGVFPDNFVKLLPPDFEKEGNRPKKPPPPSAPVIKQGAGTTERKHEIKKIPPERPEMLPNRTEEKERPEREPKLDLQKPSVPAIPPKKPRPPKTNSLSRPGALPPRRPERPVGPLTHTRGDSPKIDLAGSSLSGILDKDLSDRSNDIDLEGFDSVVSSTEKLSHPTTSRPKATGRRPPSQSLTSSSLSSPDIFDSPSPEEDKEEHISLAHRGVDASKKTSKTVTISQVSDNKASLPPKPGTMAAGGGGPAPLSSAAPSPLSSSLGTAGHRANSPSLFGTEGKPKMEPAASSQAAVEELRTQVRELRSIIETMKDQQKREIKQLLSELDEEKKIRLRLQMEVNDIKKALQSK
UniProt P78314: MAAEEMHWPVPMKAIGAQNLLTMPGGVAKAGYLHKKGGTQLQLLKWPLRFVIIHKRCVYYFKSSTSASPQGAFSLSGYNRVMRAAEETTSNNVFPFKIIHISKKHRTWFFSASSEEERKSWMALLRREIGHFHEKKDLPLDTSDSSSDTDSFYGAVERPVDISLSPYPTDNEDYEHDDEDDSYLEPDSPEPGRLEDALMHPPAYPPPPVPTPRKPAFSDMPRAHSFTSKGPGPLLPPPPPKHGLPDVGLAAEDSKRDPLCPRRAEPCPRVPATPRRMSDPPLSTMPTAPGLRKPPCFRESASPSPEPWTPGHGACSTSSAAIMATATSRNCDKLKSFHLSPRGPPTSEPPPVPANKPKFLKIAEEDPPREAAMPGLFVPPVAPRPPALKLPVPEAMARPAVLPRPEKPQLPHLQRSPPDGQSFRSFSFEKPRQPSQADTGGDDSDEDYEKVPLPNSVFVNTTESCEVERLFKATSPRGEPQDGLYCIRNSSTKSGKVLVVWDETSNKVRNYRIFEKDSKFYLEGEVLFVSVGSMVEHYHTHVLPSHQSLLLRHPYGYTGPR

Columns and labels:
Assay in all cases: log2 fold change, soluble protein after heating vs DMSO (PISA); higher = thermal stabilisation; K562 lysate, 10 uM; active = over 0.2 and 3.5 SD of the protein, either way, in both replicates (recomputed)
[1] = compound: CCCS(=O)(=O)Nc1ccc(F)c(C(=O)c2c[nH]c3ncc(-c4ccc(Cl)cc4)cc23)c1F [vemurafenib]
How it was run: (§1)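 K562 pellets were dounce-homogenised in PBS pH 7.4 containing 1 mM MgCl2, and the crude extract, at 1 mg/mL protein, was exposed to 10 μM compound for 30 min. Aliquots were heated for 3 min across 48°C-58°C, pooled, brought to 0.5% NP-40 at 4°C and spun at 21,000xg for 90 min, with the supernatant taken as soluble protein. TMTpro 16plex LC-MS/MS with equalised channel sums quantified that protein. Values are log-two fold changes in thermal stability relative to solvent controls, taken from duplicates.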

[2] = compound: CCCS(=O)(=O)Nc1ccc(F)c(C(=O)c2c[nH]c3ncc(Cl)cc23)c1F
How it was run: as §1

[3] = compound: CCN(CCCOc1ccc2c(Nc3cc(CC(=O)Nc4cccc(F)c4)[nH]n3)ncnc2c1)CCOP(=O)(O)O [barasertib]
How it was run: as §1

[4] = compound: CC[C@@H]1C(=O)N(C)c2cnc(Nc3ccc(C(=O)NC4CCN(C)CC4)cc3OC)nc2N1C1CCCC1
How it was run: as §1

[5] = compound: CC[C@@H]1C(=O)N(C)c2cnc(Nc3ccc(C(=O)N[C@H]4CC[C@H](N5CCN(CC6CC6)CC5)CC4)cc3OC)nc2N1C(C)C [volasertib]
How it was run: as §1

[6] = compound: CCn1c(C(=O)N(C2CC2)C2CC2)cc2c3c(ncn3C)c(Nc3cc(C)n(C)n3)nc21
How it was run: as §1

[7] = compound: CCn1cc(-c2ccnc3[nH]c(-c4cccc(CN(C)C)c4)cc23)c(-c2ccc(NC(=O)N(C)C)cc2)n1
How it was run: as §1

[8] = compound: CN1CCC(CNc2ccc3ncc(-c4cccc(OC(F)(F)F)c4)n3n2)CC1
How it was run: as §1

[9] = compound: CN1CCN(CCOc2cc(OC3CCOCC3)c3c(Nc4c(Cl)ccc5c4OCO5)ncnc3c2)CC1 [saracatinib]
How it was run: as §1

[10] = compound: CN1CCN(c2nc(C3=C(c4c[nH]c5ccccc45)C(=O)NC3=O)c3ccccc3n2)CC1 [sotrastaurin]
How it was run: as §1

[11] = compound: CN1CC[C@H](c2c(O)cc(O)c3c(=O)cc(-c4ccccc4Cl)oc23)[C@H](O)C1 [alvocidib]
How it was run: as §1

[12] = compound: CN1CCc2c(c3ccccc3n2Cc2ccc(C(=O)NO)cc2)C1 [Tubastatin A]
How it was run: as §1

[13] = compound: CNC(=O)C1=CC=CC=C1NC2=NC(=NC=C2Cl)NC3=C(C=C(C=C3)N4CCOCC4)OC
How it was run: as §1

[14] = compound: CNC(=O)c1ccc(Nc2ncc(C(F)(F)F)c(NCc3nccnc3N(C)S(C)(=O)=O)n2)cc1 [defactinib]
How it was run: as §1

[15] = compound: CNc1nc(-c2ccc3c(N)n[nH]c3c2)cc(N2C[C@@H](C(=O)NC3CCCCC3)CC[C@H]2C)n1
How it was run: as §1

[16] = compound: COC(=O)N[C@@H](C)CNc1nccc(-c2cn(C(C)C)nc2-c2cc(Cl)cc(NS(C)(=O)=O)c2F)n1 [encorafenib]
How it was run: as §1

[17] = compound: COC(=O)[C@H](CCSC)NC(=O)C1=C(C=C(C=C1)NC[C@H](CS)N)C2=CC=CC=C2
How it was run: as §1

[18] = compound: COc1cc(Nc2ncc3c(n2)-c2ccc(Cl)cc2C(c2c(F)cccc2OC)=NC3)ccc1C(=O)O [alisertib]
How it was run: as §1

[19] = compound: COc1cc2nc(-c3cc(F)ccc3O)nc(N[C@@H]3CNC[C@H]3C(C)(C)O)c2cc1OC
How it was run: as §1

[20] = compound: COc1cc2ncnc(Nc3ccc(F)c(Cl)c3)c2cc1OCCCN1CCOCC1 [gefitinib]
How it was run: as §1

Measured: log2 fold change

SIGMAR1 (UniProt Q99720)
inactive: [1] 0.033 | [2] 0.032 | [3] -0.034 | [4] 0.019 | [5] -0.038 | [6] 0.018 | [7] -0.203 | [8] 0.066 | [9] -0.001 | [10] 0.027 | [11] -0.123 | [12] 0 | [13] 0.022 | [14] -0.028 | [15] 0.107 | [16] 0.066 | [17] -0.015 | [18] 0.01 | [19] 0.044 | [20] -0.033

SF3B3 (UniProt Q15393)
inactive: [1] 0.004 | [2] 0.002 | [3] 0.001 | [4] -0.004 | [5] 0.006 | [6] 0.001 | [7] -0.058 | [8] 0.05 | [9] 0.002 | [10] -0.014 | [11] -0.024 | [12] 0.019 | [13] 0.004 | [14] -0.036 | [15] 0.013 | [16] -0.003 | [17] 0.064 | [18] -0.01 | [19] 0.038 | [20] -0.007

SHPRH (UniProt Q149N8)
inactive: [1] 0.061 | [2] -0.014 | [3] 0.073 | [4] -0.044 | [5] 0.03 | [6] -0.02 | [7] 0.034 | [8] 0.025 | [9] 0.012 | [10] -0.016 | [11] -0.003 | [12] -0.091 | [13] 0.059 | [14] 0.031 | [15] -0.131 | [16] 0.085 | [17] 0.065 | [18] -0.062 | [19] -0.027 | [20] 0.011

SERPINB6, A0A087X1N8
inactive: [1] 0 | [2] 0.042 | [3] -0.058 | [4] 0.055 | [5] 0.003 | [6] -0.027 | [7] -0.08 | [8] 0.038 | [9] -0.021 | [10] -0.003 | [11] -0.013 | [12] 0.031 | [13] 0.003 | [14] 0.021 | [15] 0.001 | [16] -0.033 | [17] -0.041 | [18] -0.011 | [19] -0.011 | [20] -0.017

SH2D1B (UniProt O14796)
inactive: [1] -0.007 | [4] 0.031 | [6] -0.125 | [7] -0.062 | [8] -0.069 | [9] -0.05 | [10] 0.047 | [11] 0.017 | [12] -0.299 | [14] 0.097 | [15] -0.065 | [16] 0.12 | [17] -0.098

SETX isoform 4 (UniProt Q7Z333)
inactive: [1] -0.026 | [2] -0.037 | [4] 0.013 | [5] -0.009 | [6] -0.017 | [7] 0.094 | [8] -0.176 | [9] 0.041 | [10] 0.073 | [11] 0.108 | [12] -0.173 | [13] 0.058 | [14] 0.218 | [15] 0.022 | [16] -0.219 | [17] 0.17 | [18] 0.003 | [19] 0.11 | [20] 0.025

SERPINB5 (UniProt P36952)
inactive: [2] -0.055 | [3] 0.128 | [5] -0.116 | [6] 0.073 | [7] -0.124 | [8] 0.2 | [9] 0.025 | [10] 0.012 | [11] -0.016 | [12] 0.376 | [13] -0.124 | [15] -0.121 | [18] -0.174 | [19] -0.103 | [20] 0.182

SKP2 (UniProt Q13309)
inactive: [1] 0.417 | [2] 0.093 | [4] 0.193 | [5] 0.05 | [6] 0.025 | [7] 0.121 | [8] -0.008 | [9] -0.011 | [10] 0.032 | [11] -0.048 | [12] -0.077 | [13] 0.044 | [14] 0.189 | [15] 0.03 | [16] -0.053 | [17] 0.085 | [18] 0.01 | [19] 0.173 | [20] 0.058

SH2B1 (UniProt Q9NRF2)
inactive: [2] -0.118 | [3] -0.007 | [5] 0.062 | [6] -0.119 | [7] -0.144 | [8] 0.1 | [9] 0.049 | [10] 0.054 | [11] 0.049 | [12] -0.108 | [13] -0.121 | [15] 0.086 | [18] -0.049 | [19] 0.048 | [20] 0.034

SH3KBP1 (UniProt Q96B97)
inactive: [2] -0.162 | [3] 0.345 | [4] 0.074 | [5] -0.029 | [6] -0.111 | [7] 0.16 | [8] 0.108 | [9] 0.114 | [10] 0.002 | [11] -0.056 | [12] 0.135 | [13] -0.008 | [15] 0.007 | [16] -0.001 | [17] 0.136 | [19] 0.111

SF1 (UniProt H7C0N4)
inactive: [1] -0.02 | [2] 0.026 | [4] 0.12 | [5] 0.004 | [7] 0.074 | [8] 0.168 | [10] 0.218 | [11] -0.071 | [14] 0.023 | [16] -0.001 | [17] 0.02 | [19] 0.263

Random excerpt: 2 entries already listed.
SIGMAR1 (UniProt Q99720)
inactive: [1] 0.033 | [2] 0.032 | [3] -0.034 | [4] 0.019 | [5] -0.038 | [6] 0.018 | [7] -0.203 | [8] 0.066 | [9] -0.001 | [10] 0.027 | [11] -0.123 | [12] 0 | [13] 0.022 | [14] -0.028 | [15] 0.107 | [16] 0.066 | [17] -0.015 | [18] 0.01 | [19] 0.044 | [20] -0.033

SH3KBP1 (UniProt Q96B97)
inactive: [2] -0.162 | [3] 0.345 | [4] 0.074 | [5] -0.029 | [6] -0.111 | [7] 0.16 | [8] 0.108 | [9] 0.114 | [10] 0.002 | [11] -0.056 | [12] 0.135 | [13] -0.008 | [15] 0.007 | [16] -0.001 | [17] 0.136 | [19] 0.111

Continued:

SIMC1 (UniProt Q8NDZ2)
inactive: [1] 0.044 | [3] 0.363 | [4] -0.034 | [7] 0.129 | [8] 0.088 | [10] -0.011 | [11] -0.154 | [14] 0.04 | [16] -0.214 | [17] 0.217 | [18] -0.066 | [20] 0.054

SIGIRR (UniProt Q6IA17)
inactive: [1] 0.068 | [2] -0.443 | [4] 0.087 | [5] 0.011 | [7] 0.09 | [8] -0.097 | [11] -0.094 | [14] -0.03 | [16] -0.002 | [17] -0.03 | [19] -0.002

SGMS1 (UniProt Q86VZ5)
inactive: [1] 0.035 | [2] 0.037 | [4] -0.104 | [5] 0.007 | [6] 0.011 | [7] -0.021 | [8] -0.006 | [9] 0.03 | [10] 0.033 | [11] -0.058 | [12] 0.035 | [13] 0.048 | [14] -0.056 | [15] -0.057 | [16] 0.036 | [17] -0.005 | [18] 0.001 | [19] 0.172 | [20] -0.014

SHARPIN (UniProt Q9H0F6)
inactive: [1] -0.027 | [2] 0.184 | [4] -0.041 | [5] 0.127 | [6] 0.062 | [9] 0.016 | [10] 0.058 | [12] -0.145 | [13] 0.077 | [14] -0.013 | [15] 0.274 | [16] 0.08 | [17] -0.008 | [18] 0.014 | [19] -0.036 | [20] -0.035

SERPINA7 (UniProt P05543)
inactive: [1] -0.125 | [3] 0.341 | [4] -0.042 | [7] -0.078 | [8] 0.01 | [11] -0.053 | [14] 0.013 | [16] -0.015 | [17] 0.056

SIRT3 (UniProt Q9NTG7)
inactive: [1] -0.158 | [2] 0.018 | [5] 0.101 | [6] -0.074 | [9] -0.162 | [10] -0.006 | [12] 0.077 | [13] 0.017 | [14] 0.054 | [15] 0.282 | [19] -0.017

SLC18B1 (UniProt Q6NT16)
inactive: [1] -0.113 | [2] -0.131 | [5] 0.057 | [6] -0.07 | [7] -0.108 | [8] 0.017 | [10] -0.009 | [11] -0.084 | [12] 0.107 | [13] 0.036 | [14] 0.003 | [18] 0.015 | [19] 0.026 | [20] 0.062

SH3BP2 isoform 4 (UniProt P78314)
inactive: [1] 0.087 | [2] -0.017 | [3] -0.075 | [5] -0.052 | [6] 0.029 | [7] -0.04 | [8] 0.089 | [9] 0.006 | [10] 0.02 | [11] -0.023 | [12] 0.026 | [13] 0.03 | [14] -0.054 | [15] 0.099 | [19] 0.053

SLC10A3 (UniProt P09131)
inactive: [1] 0.121 | [4] -0.099 | [7] -0.012 | [8] 0.025 | [11] 0.019 | [14] 0.114 | [16] -0.014 | [17] 0.052

SFXN4 isoform 3 (UniProt Q6P4A7)
inactive: [1] 0.278 | [3] -0.361 | [4] -0.035 | [6] -0.001 | [7] -0.238 | [8] -0.009 | [10] -0.03 | [11] -0.202 | [12] 0.084 | [13] -0.047 | [14] -0.057 | [16] 0.076 | [17] -0.173 | [18] 0.477 | [20] 0.217
